The text below walks through data of PMC9344665.

Where a chain is given by its changes, count along the chain named. Results are given in words; binding and its absence hold for the method and conditions named. Tags and fused reporters may be left off the sequences shown.

For experiment [1], the target named is T1, FARSA P347L variant (human) (UniProt Q9Y285).
T1 sequence: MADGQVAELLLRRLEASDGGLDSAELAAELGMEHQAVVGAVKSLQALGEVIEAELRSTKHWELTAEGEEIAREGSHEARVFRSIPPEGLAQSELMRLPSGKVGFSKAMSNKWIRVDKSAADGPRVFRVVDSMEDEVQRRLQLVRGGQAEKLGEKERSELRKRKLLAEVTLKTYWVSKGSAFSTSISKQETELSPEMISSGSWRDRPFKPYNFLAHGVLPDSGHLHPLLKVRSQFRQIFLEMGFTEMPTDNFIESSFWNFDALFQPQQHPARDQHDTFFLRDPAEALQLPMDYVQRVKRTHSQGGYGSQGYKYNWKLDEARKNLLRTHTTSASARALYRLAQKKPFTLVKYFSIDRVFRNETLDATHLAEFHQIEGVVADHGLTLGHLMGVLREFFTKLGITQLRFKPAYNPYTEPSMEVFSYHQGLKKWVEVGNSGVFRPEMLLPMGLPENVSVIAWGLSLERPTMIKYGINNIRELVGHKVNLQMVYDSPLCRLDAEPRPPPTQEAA
Nature of the experiment: co-purification of coexpressed proteins (Ni-NTA, then heparin chromatography); mutant His6-FARSA coexpressed with FARSB carrying a C-terminal His6-tag in E. coli Rosetta (DE3); both captured on Ni-NTA, the Ni-NTA eluate loaded on a heparin column; SDS-PAGE of loading, flow-through and elution samples.

For experiment [2], the target named is T2, FARSA R404C variant (human) (UniProt Q9Y285).
T2 sequence: T1 sequence with L347P, R404C
The description is as above.

B1: FARSB with a His6-tag at the C-terminus (enzyme, UniProt Q9NSD9 1-584)
chain: MPTVSVKRDLLFQALGRTYTDEEFDELCFEFGLELDEITSEKEIISKEQGNVKAAGASDVVLYKIDVPANRYDLLCLEGLVRGLQVFKERIKAPVYKRVMPDGKIQKLIITEETAKIRPFAVAAVLRNIKFTKDRYDSFIELQEKLHQNICRKRALVAIGTHDLDTLSGPFTYTAKRPSDIKFKPLNKTKEYTACELMNIYKTDNHLKHYLHIIENKPLYPVIYDSNGVVLSMPPIINGDHSRITVNTRNIFIECTGTDFTKAKIVLDIIVTMFSEYCENQFTVEAAEVVFPNGKSHTFPELAYRKEMVRADLINKKVGIRETPENLAKLLTRMYLKSEVIGDGNQIEIEIPPTRADIIHACDIVEDAAIAYGYNNIQMTLPKTYTIANQFPLNKLTELLRHDMAAAGFTEALTFALCSQEDIADKLGVDISATKAVHISNPKTAEFQVARTTLLPGLLKTIAANRKMPLPLKLFEISDIVIKDSNTDVGAKNYRHLCAVYYNKNPGFEIIHGLLDRIMQLLDVPPGEDKGGYVIKASEGPAFFPGRCAEIFARGQSVGKLGVLHPDVITKFELTMPCSSLEIN
On to B1, for which the binding result in experiment [1] and in experiment [2] was “no binding” each time.
